Measured values from patent US20160046678A1 (ZYNGENIA, published 2016).
No constants are given. Whether binding was seen depends on the method and setting. Some entries that bind do so weakly or less than the wild type.

biological target: T1, Angiopoietin-2 (Ang2) (human, UniProt O15123 19-496, biotin label in Examples 22-24); assay: Example 48, method not detailed
T1 construct: also called rhAng2; recombinant Ang2
T1 sequence (looked up): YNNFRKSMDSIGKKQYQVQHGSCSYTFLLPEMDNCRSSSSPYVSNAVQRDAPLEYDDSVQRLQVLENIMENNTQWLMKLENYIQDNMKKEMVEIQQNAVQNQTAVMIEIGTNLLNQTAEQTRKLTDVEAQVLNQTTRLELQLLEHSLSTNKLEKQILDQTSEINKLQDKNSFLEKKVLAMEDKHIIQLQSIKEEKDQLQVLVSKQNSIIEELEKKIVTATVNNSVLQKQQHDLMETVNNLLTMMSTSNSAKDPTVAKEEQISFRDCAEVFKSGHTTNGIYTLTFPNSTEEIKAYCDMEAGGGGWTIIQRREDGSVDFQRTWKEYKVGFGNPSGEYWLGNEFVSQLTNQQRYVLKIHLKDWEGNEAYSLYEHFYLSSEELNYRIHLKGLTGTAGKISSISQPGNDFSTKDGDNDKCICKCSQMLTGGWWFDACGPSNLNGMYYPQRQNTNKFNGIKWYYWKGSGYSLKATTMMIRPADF

binding, binds:
EPPKCPMLPDWVSCDTWL [ANG247]
GFHRCSTFPNPHYCYKTH [ANG375]
KCPLLPDWASCESWLEVR [ANG231]
PWPDCPVYRYCRHCHHKT [ANG339]
GLRKCPVLPDWVSCDNWL [ANG277]
DWSKCPKYPNPEWCYHPS [ANG384]
LPSKCPLLPDWTSCDEYL [ANG284]
RWSYCEETMIGYPYCFTRP [ANG376]
SGFKCPLLPDWVSCTDCT [ANG278]
KCPLLPDWVSCQEWLSSK [ANG274]
VGSLCPLLPDWASCHEWL [ANG224]
KCPLLPDWVSCETYLNGD [ANG257]
KCPLLPDWVSCHEWNVWL [ANG222]
LSTKCPLLPDWVSCHEWL [ANG219]
DVPHQLNCPLLPDWAACL [ANG248]
TAFKCPPLPDWVSCLDWL [ANG272]
LMHECPLLPDWVSCHTFL [ANG256]
PHVICHYWKHPWCFQNS [ANG381]
YFDKCPLLPDWLTCHEWM [ANG281]
AAFMLSCHSTDGQSWACMESH [ANG377]
RFLECAWFPTPYFCHESE [ANG371]
AMSLCPLLPDWASCNDYL [ANG217]
GFQRCKTFPNPHYCYKTH [ANG383]
TYTKCMTYPNPQYCFKHN [ANG385]
TTLNCPLLPDWLTCQEFL [ANG229]
KCPLLPDWVPCHEWLNVW [ANG215]
SSGKCPLLPDWKSCDEWL [ANG241]
KCPFLPDWVSCHDYSQKY [ANG266]
HYDKCPLLPDWVSCHEFL [ANG275]
LPMECYFYPNPEHCYLVP [ANG358]
WYRKCPLLPDWVSCHEWY [ANG228]
KCPLLPDWFSCHEYQEMF [ANG245]
HLDKCPLLPDWISCTDWL [ANG232]
KCPLLPDWVSCDMYLERQ [ANG258]
YVSKCPFLPDWVSCHGWL [ANG263]
VFYRCMKWPNPWWCYSQP [ANG382]
EISKCPLLPDWVSCYQWL [ANG249]
TYTKCMTYPNPQYCFKHS [ANG370]
ECPLLPDWVSCHEWNRLH [ANG269]
KCPLLPDWASCDQWNEWN [ANG259]
MLMKCPLLPDWASCDVWL [ANG252]
TGSTAKYCQDYPGWRYCH [ANG355]
KCPLLPDWVSCHTYLEES [ANG246]
ILLRCAWYPAPPWCNIET [ANG380]
KCPLLPDWVTCDEFQGMQ [ANG233]
RCPFLPDWLSCNEWLMIE [ANG225]
LASKCPLLPDWISCQTWL [ANG279]
LGWTELKCPLLPDWATCN [ANG220]
ATSKCPLLPDWVSCDEHL [ANG239]
QYDPCEYYIPCVKWG [ANG374]
KCPLLPDWVSCDQWRLLE [ANG280]
KCPLLPDWVSCHEWNIRE [ANG242]
FPPKCPLRPDWVSCHERH [ANG267]
KCPLLPDWLSCLEWQLME [ANG211]
KCPLLPDWISCAQWQRAV [ANG223]
MNVKCPLLPDWVSCLDYL [ANG250]
RSFECRWQPEHPICAKGV [ANG378]
SPVKCPFLPDWISCDLYL [ANG270]
LCPRLPDWVSCHTWLERY [ANG218]
